The assay deals with β2 adrenergic receptor (rat (endogenous in primary FLSs)) (UniProt P10608). Put plainly: co-IP; lysates (NP40 immunoprecipitation buffer) of primary rat FLSs; anti-β2AR antibody on Protein A/G agarose beads overnight at 4 °C; Gαs, Gαi and β2AR detected by Western blot; cells were normal or CIA FLSs, or normal FLSs treated with ISO, ISO + CP-25, or βarr2 siRNA + ISO. For orientation: A western blot detects proteins with antibodies after separation by electrophoresis.

By UniProt entry, the sequences of proteins in these tests, tags left out.
UniProt P10608: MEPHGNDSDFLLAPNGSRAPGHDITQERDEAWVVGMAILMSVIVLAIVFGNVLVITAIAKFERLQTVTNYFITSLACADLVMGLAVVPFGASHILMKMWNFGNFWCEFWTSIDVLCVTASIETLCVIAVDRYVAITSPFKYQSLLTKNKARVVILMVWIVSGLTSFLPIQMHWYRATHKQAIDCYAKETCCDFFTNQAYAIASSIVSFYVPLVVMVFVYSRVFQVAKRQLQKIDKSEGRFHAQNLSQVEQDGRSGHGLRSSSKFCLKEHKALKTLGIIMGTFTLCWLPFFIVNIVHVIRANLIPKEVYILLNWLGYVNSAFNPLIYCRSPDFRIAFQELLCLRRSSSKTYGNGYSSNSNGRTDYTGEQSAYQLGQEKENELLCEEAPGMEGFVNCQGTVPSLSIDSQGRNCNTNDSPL
UniProt P63095: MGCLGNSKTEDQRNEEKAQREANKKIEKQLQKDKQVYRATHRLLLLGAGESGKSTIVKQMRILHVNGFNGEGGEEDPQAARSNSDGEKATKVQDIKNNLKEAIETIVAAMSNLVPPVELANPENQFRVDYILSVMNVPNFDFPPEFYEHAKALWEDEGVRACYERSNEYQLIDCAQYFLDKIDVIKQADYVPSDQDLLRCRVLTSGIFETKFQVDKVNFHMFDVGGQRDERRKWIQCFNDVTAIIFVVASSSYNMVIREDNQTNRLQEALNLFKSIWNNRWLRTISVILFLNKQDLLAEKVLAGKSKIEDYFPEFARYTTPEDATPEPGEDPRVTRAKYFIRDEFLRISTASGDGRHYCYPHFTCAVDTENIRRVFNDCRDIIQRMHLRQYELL

Here are results for one substance from article PMC10688045.

These are yes or no findings as the source states them, for the method shown. Binding seen in cells or lysates may run through a third protein. Some results given as binding are weak or reduced against the parent protein; the word gives no strength.

Consider Gαs (from UniProt P63095 1-394), for which the binding entry is reported as “binds”.
